# Source: PMC12183919
# By UniProt entry, the sequences of proteins in these tests, tags left out.
# UniProt P63027: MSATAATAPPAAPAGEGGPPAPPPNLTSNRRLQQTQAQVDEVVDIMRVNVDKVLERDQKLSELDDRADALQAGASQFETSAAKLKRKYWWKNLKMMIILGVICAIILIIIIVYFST
# UniProt P21579: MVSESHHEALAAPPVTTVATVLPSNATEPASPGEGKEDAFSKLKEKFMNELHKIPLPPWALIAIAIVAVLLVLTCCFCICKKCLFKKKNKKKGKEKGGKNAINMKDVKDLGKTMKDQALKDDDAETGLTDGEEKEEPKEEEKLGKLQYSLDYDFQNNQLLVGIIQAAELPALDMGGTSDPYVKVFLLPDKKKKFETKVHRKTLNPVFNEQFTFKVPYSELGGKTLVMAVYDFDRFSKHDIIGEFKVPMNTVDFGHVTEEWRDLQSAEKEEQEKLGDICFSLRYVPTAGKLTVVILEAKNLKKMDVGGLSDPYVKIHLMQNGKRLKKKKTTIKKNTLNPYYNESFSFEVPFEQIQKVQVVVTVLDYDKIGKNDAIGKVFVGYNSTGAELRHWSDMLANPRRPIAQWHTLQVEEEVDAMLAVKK
# UniProt O14810: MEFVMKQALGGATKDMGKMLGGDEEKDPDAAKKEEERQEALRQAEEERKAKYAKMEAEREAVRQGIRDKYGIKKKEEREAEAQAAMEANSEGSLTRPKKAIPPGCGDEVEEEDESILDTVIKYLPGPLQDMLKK
# These are yes or no findings as the source states them, for the method shown. Binding seen in cells or lysates may run through a third protein. Some entries that bind do so weakly or less than the wild type. Sequences can lack the tags named with a protein.
# Biological target: T1, synaptotagmin 13 (SYT13), endogenous in human brain (human (endogenous in brain tissue)) (UniProt Q7L8C5)
# T1 sequence: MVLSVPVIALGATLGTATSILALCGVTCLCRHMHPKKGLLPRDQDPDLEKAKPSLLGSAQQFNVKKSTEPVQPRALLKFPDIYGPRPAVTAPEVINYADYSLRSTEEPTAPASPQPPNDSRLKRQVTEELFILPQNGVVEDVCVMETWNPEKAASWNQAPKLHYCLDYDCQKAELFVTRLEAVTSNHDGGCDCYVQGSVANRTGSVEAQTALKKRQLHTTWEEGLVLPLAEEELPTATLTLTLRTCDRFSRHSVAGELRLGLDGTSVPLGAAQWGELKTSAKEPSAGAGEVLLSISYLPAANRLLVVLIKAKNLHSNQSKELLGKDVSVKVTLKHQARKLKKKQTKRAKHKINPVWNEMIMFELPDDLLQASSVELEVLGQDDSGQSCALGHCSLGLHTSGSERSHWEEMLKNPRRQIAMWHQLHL
# Test: co-IP; human temporal lobe homogenates (DLB, MSA, controls); IP with anti-SYT13 antibody (MBS9606007), immunoblot
row,Substance,binding
1,"vesicle-associated membrane protein 2 (VAMP2), endogenous in human brain (from UniProt P63027 1-116)",binds
2,"synaptotagmin 1 (SYT1), endogenous in human brain (from UniProt P21579 1-422)",binds
3,"Complexin 1 (CPLX1), endogenous in human brain (from UniProt O14810 1-134)",binds
